Record: PubChem BioAssay AID1224827 (NIAID, 2016)
Shown is an unselected part of about 3,800 reagents tested. About 2,200 of them (57%) count as active. 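Active means a strong reporter change in either direction; calls are per siRNA, not per gene; qiagen siRNAs gave weaker effects.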 Unmarked entries are inactive. The numbers tell different reagents against one gene apart.

Purpose: 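Confirm genes whose knock-down changes LPS-driven TNF promoter activity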 (follow-up of hits)
System: RAW264.7 G9 mouse macrophage reporter clone
Reagent: single siRNA against mouse genes, 100 nM siRNA
Time to read-out: siRNA for 2 days, then LPS about 16 h
Treatment: bacterial lipopolysaccharide (LPS), 10 ng/ml, cells fixed after overnight (about 16 h) stimulation
Measured: 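TNF promoter reporter red fluorescence in nuclei, background subtracted, normalised per plate and to non-targeting control siRNA, as z-scores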
Direction: TNF reporter z-score, mean and TNF reporter z-score: higher = stronger Tnf promoter reporter signal; gene median z, three same-vendor siRNAs: higher = stronger Tnf reporter signal for the gene
Call rule: 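Active siRNA: replicate-mean z-score of 2 or more, or -2 or less; no calls for control wells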

gene knocked down	reagent no.	TNF reporter z-score, mean	gene median z, three same-vendor siRNAs	TNF reporter z-score, repeat 1	TNF reporter z-score, repeat 2
Xrcc5	1	-1.65	-2.82	-0.826	-2.47
Xrcc5	2	-2.82 (active)	-2.82	-2.99	-2.64
Xrcc5	3	-3.25 (active)	-2.82	-3.4	-3.11
Xrcc5	4	3.51 (active)	0.412	7.05	-0.0224
Xrcc5	5	-0.0733	0.412	1.2	-1.34
Xrcc5	6	-0.354	0.412	0.847	-1.55
Or2t46	1	1.79	1.45	-0.161	3.74
Or2t46	2	1.58	1.45	0.315	2.85
Or2t46	3	0.46	1.45	-1.66	2.58
Or2t46	4	-0.56	-1.82	0.36	-1.48
Or2t46	5	-1.1	-1.82	0.0859	-2.28
Or2t46	6	-2.47 (active)	-1.82	-2.16	-2.79

As entered above:
Xrcc5 #5, TNF reporter z-score, repeat 2: -1.34
For “TNF reporter z-score, repeat 2”, Or2t46 #3 has 2.58

Further entries follow.
gene knocked down	reagent no.	TNF reporter z-score, mean	gene median z, three same-vendor siRNAs	TNF reporter z-score, repeat 1	TNF reporter z-score, repeat 2
Lrrc10	1	4.62 (active)	3.41	4.19	5.05
Lrrc10	2	3.47 (active)	3.41	2.63	4.31
Lrrc10	3	-1.82	3.41	-2.01	-1.64
Lrrc10	4	1.59	-1.13	3.56	-0.39
Lrrc10	5	-1.62	-1.13	-1.87	-1.37
Lrrc10	6	-1.62	-1.13	-0.892	-2.35
Sh2d2a	1	-1.17	-3.25	-1.14	-1.2
Sh2d2a	2	-3.25 (active)	-3.25	-2.83	-3.67
Sh2d2a	3	-4.71 (active)	-3.25	-4.23	-5.19
Sh2d2a	4	1.57	-0.19	3.41	-0.271
Sh2d2a	5	0.991	-0.19	2.99	-1.01
Sh2d2a	6	-0.863	-0.19	-0.109	-1.62
